Source: paper doi:10.1101/2025.08.22.671882

The chains behind the UniProt entries cited, without tags or fusion partners.
UniProt Q07955: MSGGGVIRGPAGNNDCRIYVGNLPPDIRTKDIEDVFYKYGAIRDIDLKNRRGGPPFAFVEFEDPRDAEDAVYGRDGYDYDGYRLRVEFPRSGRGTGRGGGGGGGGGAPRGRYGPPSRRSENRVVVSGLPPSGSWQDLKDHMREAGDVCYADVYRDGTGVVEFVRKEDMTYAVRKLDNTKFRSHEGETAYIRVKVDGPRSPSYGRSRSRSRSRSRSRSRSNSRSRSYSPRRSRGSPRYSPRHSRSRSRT
UniProt P51665: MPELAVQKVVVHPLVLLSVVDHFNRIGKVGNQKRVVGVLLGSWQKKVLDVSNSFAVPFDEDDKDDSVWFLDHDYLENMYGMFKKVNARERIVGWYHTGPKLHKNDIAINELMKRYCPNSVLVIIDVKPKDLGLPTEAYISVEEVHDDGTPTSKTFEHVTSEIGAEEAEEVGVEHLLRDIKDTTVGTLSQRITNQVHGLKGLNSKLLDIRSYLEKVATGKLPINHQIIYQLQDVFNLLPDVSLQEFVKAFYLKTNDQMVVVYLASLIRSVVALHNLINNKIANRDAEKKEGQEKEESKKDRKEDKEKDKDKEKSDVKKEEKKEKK
UniProt Q93008: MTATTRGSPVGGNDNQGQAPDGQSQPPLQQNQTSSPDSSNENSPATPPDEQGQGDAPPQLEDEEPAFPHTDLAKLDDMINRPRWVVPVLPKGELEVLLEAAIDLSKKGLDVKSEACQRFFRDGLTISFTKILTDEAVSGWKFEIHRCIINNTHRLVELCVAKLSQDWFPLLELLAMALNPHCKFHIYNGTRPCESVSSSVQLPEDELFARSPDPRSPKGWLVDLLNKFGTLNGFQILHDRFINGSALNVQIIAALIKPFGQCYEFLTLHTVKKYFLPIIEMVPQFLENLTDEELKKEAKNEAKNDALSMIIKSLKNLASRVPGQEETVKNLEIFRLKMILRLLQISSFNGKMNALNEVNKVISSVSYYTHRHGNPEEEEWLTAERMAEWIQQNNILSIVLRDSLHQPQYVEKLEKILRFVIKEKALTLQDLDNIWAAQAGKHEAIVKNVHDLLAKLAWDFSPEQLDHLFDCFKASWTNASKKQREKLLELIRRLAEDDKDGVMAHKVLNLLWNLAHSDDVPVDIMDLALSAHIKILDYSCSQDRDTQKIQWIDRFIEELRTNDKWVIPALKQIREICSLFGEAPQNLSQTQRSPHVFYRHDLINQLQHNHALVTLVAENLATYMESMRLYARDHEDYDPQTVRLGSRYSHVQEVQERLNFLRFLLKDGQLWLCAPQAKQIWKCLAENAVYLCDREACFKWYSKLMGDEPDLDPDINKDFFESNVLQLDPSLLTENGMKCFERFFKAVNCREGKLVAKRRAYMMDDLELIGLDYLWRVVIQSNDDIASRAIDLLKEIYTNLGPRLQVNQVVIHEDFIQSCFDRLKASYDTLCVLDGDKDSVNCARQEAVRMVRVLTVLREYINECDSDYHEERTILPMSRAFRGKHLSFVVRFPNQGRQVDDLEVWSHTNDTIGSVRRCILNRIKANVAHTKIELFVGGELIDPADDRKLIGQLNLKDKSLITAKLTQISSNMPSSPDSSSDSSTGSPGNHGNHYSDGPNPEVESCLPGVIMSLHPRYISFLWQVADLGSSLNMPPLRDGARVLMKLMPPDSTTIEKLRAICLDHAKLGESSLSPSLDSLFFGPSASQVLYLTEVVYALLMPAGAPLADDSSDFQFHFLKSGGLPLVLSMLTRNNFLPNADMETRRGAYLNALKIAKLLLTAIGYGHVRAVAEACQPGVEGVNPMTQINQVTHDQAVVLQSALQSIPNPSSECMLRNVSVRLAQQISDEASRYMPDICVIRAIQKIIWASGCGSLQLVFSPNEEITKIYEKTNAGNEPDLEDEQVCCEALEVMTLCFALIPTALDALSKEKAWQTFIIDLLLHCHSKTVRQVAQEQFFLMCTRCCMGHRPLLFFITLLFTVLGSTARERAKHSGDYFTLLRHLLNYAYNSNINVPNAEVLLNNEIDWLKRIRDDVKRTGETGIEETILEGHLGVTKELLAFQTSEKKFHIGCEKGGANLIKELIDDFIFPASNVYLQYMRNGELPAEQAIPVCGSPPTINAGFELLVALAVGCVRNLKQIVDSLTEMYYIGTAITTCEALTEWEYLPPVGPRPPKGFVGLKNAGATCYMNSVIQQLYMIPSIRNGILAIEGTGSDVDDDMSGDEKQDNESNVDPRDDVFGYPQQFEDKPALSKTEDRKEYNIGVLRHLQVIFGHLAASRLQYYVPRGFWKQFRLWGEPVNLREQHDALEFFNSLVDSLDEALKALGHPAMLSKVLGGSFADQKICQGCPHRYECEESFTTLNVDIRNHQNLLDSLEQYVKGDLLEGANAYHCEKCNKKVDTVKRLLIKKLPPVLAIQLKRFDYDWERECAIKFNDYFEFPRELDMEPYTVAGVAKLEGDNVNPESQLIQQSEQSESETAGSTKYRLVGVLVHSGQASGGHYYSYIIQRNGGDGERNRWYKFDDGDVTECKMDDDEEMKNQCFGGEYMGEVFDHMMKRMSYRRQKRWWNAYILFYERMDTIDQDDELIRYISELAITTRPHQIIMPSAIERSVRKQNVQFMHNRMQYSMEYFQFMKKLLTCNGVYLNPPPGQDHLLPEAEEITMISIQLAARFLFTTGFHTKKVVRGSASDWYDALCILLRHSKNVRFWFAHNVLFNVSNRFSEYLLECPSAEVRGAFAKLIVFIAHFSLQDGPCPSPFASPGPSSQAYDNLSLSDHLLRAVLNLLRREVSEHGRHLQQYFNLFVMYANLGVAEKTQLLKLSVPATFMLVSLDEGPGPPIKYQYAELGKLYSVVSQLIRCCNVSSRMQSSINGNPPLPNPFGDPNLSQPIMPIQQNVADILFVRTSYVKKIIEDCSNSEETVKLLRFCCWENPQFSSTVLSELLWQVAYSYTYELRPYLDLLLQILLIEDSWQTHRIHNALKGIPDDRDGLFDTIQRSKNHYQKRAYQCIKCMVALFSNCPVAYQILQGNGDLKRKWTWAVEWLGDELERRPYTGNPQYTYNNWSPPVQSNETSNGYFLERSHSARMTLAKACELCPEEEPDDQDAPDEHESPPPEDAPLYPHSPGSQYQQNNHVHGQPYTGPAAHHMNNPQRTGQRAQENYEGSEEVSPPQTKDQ
UniProt Q13620: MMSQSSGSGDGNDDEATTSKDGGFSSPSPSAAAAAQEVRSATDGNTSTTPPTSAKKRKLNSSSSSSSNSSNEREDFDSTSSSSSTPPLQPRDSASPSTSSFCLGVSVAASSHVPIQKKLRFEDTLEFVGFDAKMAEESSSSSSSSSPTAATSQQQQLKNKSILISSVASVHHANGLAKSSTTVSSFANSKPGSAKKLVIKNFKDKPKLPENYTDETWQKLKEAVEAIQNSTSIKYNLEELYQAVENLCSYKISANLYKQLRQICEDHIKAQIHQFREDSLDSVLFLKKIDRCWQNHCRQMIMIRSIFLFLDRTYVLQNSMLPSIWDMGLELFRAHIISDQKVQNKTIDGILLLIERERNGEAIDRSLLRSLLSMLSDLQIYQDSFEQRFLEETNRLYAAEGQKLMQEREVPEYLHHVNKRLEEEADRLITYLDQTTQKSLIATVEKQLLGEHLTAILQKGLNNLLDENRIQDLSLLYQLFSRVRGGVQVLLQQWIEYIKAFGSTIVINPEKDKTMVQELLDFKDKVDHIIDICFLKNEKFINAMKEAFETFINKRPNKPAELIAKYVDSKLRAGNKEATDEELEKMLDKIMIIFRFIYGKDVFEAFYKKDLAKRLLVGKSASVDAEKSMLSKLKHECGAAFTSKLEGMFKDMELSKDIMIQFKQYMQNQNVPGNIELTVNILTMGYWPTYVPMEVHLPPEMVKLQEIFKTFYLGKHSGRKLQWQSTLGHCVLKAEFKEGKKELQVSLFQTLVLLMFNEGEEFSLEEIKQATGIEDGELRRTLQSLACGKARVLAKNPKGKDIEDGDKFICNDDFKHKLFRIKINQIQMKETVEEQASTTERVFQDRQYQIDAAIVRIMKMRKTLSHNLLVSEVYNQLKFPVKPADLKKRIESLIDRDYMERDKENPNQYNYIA

B1: USP39, endogenous (enzyme, UniProt Q53GS9 1-565)
chain: MSGRSKRESRGSTRGKRESESRGSSGRVKRERDREREPEAASSRGSPVRVKREFEPASAREAPASVVPFVRVKREREVDEDSEPEREVRAKNGRVDSEDRRSRHCPYLDTINRSVLDFDFEKLCSISLSHINAYACLVCGKYFQGRGLKSHAYIHSVQFSHHVFLNLHTLKFYCLPDNYEIIDSSLEDITYVLKPTFTKQQIANLDKQAKLSRAYDGTTYLPGIVGLNNIKANDYANAVLQALSNVPPLRNYFLEEDNYKNIKRPPGDIMFLLVQRFGELMRKLWNPRNFKAHVSPHEMLQAVVLCSKKTFQITKQGDGVDFLSWFLNALHSALGGTKKKKKTIVTDVFQGSMRIFTKKLPHPDLPAEEKEQLLHNDEYQETMVESTFMYLTLDLPTAPLYKDEKEQLIIPQVPLFNILAKFNGITEKEYKTYKENFLKRFQLTKLPPYLIFCIKRFTKNNFFVEKNPTIVNFPITNVDLREYLSEEVQAVHKNTTYDLIANIVHDGKPSEGSYRIHVLHHGTGKWYELQDLQVTDILPQMITLSEAYIQIWKRRDNDETNQQGA

molecular target: T7-tagged SRSF1 expressed in SUIT-2 cells (UniProt Q07955); assay: affinity purification with mass spectrometry

| binding | Molecule |
| --- | --- |
| binds | PSMD7 (from UniProt P51665 1-324) |
| binds | USP9X (from UniProt Q93008 1-2554) (enzyme) |
| binds | CUL4B (from UniProt Q13620 1-913) |
| binds | B1 |

These are yes or no findings as the source states them, for the method shown. Binding seen in cells or lysates may run through a third protein. A yes stands for co-enrichment or nearness to the bait. Other partners may have been found.
